Some of the results follow. Further columns of the screen follow, without active or inactive calls. Compounds called inactive in the main read-out are mostly missing here. The note in brackets gives the kind of curve behind each potency; many fits are weak.
Assay: qHTS Assay for Lipid Storage Modulators in Drosophila S3 Cells;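 as to cell number change: cells counted by Cell Tracker Red CMTPX staining in the red channel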
Details: BODIPY lipid droplet fluorescence, 18-24 h; for cell number change: measured here: cell count max response, cells fed with added oleic acid
Method in brief: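 Drosophila S3 cells got compounds at several concentrations plus oleic acid (400 uM solution). Laser-scanning cytometry with 488 nm excitation read lipid droplets at 500-530 nm and cells at 575-640 nm. Percent activity was relative to 20 uM Triacsin C.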

[1] = measured here: lipid fluorescence (Fed channel) AC50, cells fed with added oleic acid
[2] = measured here: cell number channel AC50, cells fed with added oleic acid

SMILES	cell number change [%]	AC50 [1]	AC50 [2]
NS(=O)(=O)c1ccc(CCN2C(=O)/C(=C\c3ccc(Cl)cc3)SC2=S)cc1	-38	16.4 µM [falling, single point]	
O=[N+]([O-])c1cc(CN2CCC(O)CC2)ccc1Cl	-53.8	0.58 µM [falling, partial curve]	0.259 µM [falling, full curve]
O=C1C(Cc2ccccc2)Nc2ncnc(N3CCc4ccccc4C3)c2N1Cc1ccc(Br)cc1 (stereo not given)	14.1	6.51 µM [falling, single point]	6.51 µM [falling, single point]
COC(=O)c1ccccc1NC(=O)Cn1cnc2ccc(S(=O)(=O)N3CCC(C)CC3)cc2c1=O	8.31	0.146 µM [rising, full curve, poor fit]	
COc1ccc(NC(=O)CN(C)CC(=O)Nc2ccc(Cl)c(S(=O)(=O)N(C)C)c2)cc1	-17.5	6.51 µM [rising, single point]	
CC(=O)c1ccc(C(=O)N2CCCC(Nc3ccc(C(C)C)cc3)C2)s1 (stereo not given)	-21		
C/C=C/c1ccc(OCC(=O)OCC)c(OC)c1	-27.6	29.1 µM [falling, single point]	
CCCc1nnc(SCc2ccc(C(=O)OC)o2)n1N	10	0.164 µM [falling, full curve, poor fit]	
COCC(=O)Nc1ccc2c(c1)OCC(=O)N2Cc1ccccc1F	7.38	0.146 µM [rising, full curve, poor fit]	
CCOC(=O)c1ccc(NS(=O)(=O)c2cccc3nsnc23)cc1	104		
CN(C)c1cc[n+](CC(=O)Nc2ccc(Cl)c([N+](=O)[O-])c2)cc1	7.04		
COc1ccc(C(CNC(=O)c2ccc(S(=O)(=O)Nc3ccc(F)cc3)cc2)N(C)C)cc1 (stereo not given)	13.7	29.1 µM [rising, single point]	
COc1cc(NC(=O)c2cnc(N)o2)cc(C(=O)Nc2cccc(C(F)(F)F)c2)c1	-59.6	29.1 µM [falling, single point]	29.1 µM [falling, single point]
Cc1ccccc1NC(=O)C1=CC=CN2CCS(=O)(=O)N=C12	6.41	0.116 µM [falling, full curve, poor fit]	
c1coc(-c2nnc3sc(Cc4cccs4)nn23)c1	1.8	32.6 µM [rising, single point]	0.651 µM [falling, single point]
c1ccc(-n2c(-c3ccncc3)nnc2-c2ccco2)cc1	9.3	0.651 µM [rising, full curve, poor fit]	2.91 µM [rising, single point]
Cc1ccc(Cn2nnc3c(=O)[nH]c(C4CCCN(C(=O)c5ccco5)C4)nc32)cc1 (stereo not given)	-1.68		
O=C(Nc1cscc1S(=O)(=O)c1ccc(Cl)cc1)c1ccccc1Cl	-19.2		
CC1CCCCN1C(=O)COC(=O)/C=C/c1ccc2ccccc2n1 (stereo not given)	24.3	25.9 µM [rising, single point]	
CN(CCc1ccccn1)C(=S)Nc1cccc(S(=O)(=O)N(C)C)c1	5.13	29.1 µM [falling, single point]	

Of the compounds above, 3 contain fluorine.
SMILES	cell number change [%]	AC50 [1]	AC50 [2]
COCC(=O)Nc1ccc2c(c1)OCC(=O)N2Cc1ccccc1F	7.38	0.146 µM [rising, full curve, poor fit]	
COc1ccc(C(CNC(=O)c2ccc(S(=O)(=O)Nc3ccc(F)cc3)cc2)N(C)C)cc1 (stereo not given)	13.7	29.1 µM [rising, single point]	
COc1cc(NC(=O)c2cnc(N)o2)cc(C(=O)Nc2cccc(C(F)(F)F)c2)c1	-59.6	29.1 µM [falling, single point]	29.1 µM [falling, single point]

(further entries)

SMILES	cell number change [%]	AC50 [1]	AC50 [2]
Cc1c(O)c2c3c(cccc3c1O)C(=O)N(c1ccccc1)C2=O	-43.9	32.6 µM [falling, partial curve, poor fit]	29.1 µM [falling, single point]
CCOc1c(Br)cc(C(=O)N2CCCN(C)CC2)cc1OC	7.04		0.164 µM [rising, full curve, poor fit]
COC(=O)c1ccc(NC(=O)C2CCCN(S(=O)(=O)c3cnc[nH]3)C2)cc1 (stereo not given)	4.8	2.31 µM [rising, single point]	
O=C(Cc1ccccc1)Nc1ccc(NC(=O)c2cccs2)cc1	19.6		0.259 µM [rising, partial curve, poor fit]
COCc1nc(-c2ccc(-c3ccc(C)cc3)nc2OC)no1	-7.02		
O=C(CCCCN1CCCCC1)c1ccc2c(c1)Cc1ccccc1-2	21.6		
Cc1ccc(C2CC(=O)NC(SCC(=O)Nc3nccs3)=C2C#N)cc1 (stereo not given)	115	0.103 µM [rising, full curve, poor fit]	0.13 µM [rising, full curve, poor fit]
O=C(NCC1CCCO1)C1CCN(S(=O)(=O)N2CCCC2)CC1 (stereo not given)	85	29.1 µM [rising, partial curve]	29.1 µM [rising, single point]
O=C(NCCc1ccccc1)/C(=C\c1cccc([N+](=O)[O-])c1)NC(=O)c1ccco1	7.33		
Cc1ccc2c(c1)N(CC(=O)N1CCCCCC1)C(=O)CO2	3.51		
COc1ccc(NS(=O)(=O)c2cccc(C(=O)NCCCN3CCOCC3)c2)cc1	35		14.6 µM [rising, single point]
CCOc1cc(S(=O)(=O)Nc2ccc(Cl)cn2)ccc1F	-3.57		
Cc1cc(NC(=O)CSc2nnc(-c3ccncc3)n2Cc2ccccc2)n(-c2ccccc2)n1	21.2	6.51 µM [rising, full curve, poor fit]	
CC(C)Cc1nc2oc3c(NCc4cccnc4)ncnc3c2c2c1CCC2	30.5		29.1 µM [rising, single point]
CC(C)C(NC(=O)Cc1ccccc1)C(=O)N1CCN(c2cccc(Cl)c2)CC1 (stereo not given)	-1.1	29.1 µM [rising, single point]	
Cc1ccc(C(=O)COC(=O)c2nc3nccc(C)n3n2)c(C)c1	23.9	0.00461 µM [rising, full curve, poor fit]	
CCCNC(=O)CCn1cc(-c2ccc(OC)cc2)nc1CCN	-2.64	29.1 µM [rising, single point]	
C/C=C/C=N/Nc1nc(C)cc(=O)[nH]1	-17.2	25.9 µM [falling, single point]	
N#CCC(=N)N1CCN(c2cccc(Cl)c2)CC1			5.8 µM [rising, single point]
